Some of the results follow.

Protein sequences, listed by entry. Tags and fused reporters are not part of them. Lines headed by an entry give the natural chain unless they say otherwise; changes in a name come on top.
UniProt Q92614: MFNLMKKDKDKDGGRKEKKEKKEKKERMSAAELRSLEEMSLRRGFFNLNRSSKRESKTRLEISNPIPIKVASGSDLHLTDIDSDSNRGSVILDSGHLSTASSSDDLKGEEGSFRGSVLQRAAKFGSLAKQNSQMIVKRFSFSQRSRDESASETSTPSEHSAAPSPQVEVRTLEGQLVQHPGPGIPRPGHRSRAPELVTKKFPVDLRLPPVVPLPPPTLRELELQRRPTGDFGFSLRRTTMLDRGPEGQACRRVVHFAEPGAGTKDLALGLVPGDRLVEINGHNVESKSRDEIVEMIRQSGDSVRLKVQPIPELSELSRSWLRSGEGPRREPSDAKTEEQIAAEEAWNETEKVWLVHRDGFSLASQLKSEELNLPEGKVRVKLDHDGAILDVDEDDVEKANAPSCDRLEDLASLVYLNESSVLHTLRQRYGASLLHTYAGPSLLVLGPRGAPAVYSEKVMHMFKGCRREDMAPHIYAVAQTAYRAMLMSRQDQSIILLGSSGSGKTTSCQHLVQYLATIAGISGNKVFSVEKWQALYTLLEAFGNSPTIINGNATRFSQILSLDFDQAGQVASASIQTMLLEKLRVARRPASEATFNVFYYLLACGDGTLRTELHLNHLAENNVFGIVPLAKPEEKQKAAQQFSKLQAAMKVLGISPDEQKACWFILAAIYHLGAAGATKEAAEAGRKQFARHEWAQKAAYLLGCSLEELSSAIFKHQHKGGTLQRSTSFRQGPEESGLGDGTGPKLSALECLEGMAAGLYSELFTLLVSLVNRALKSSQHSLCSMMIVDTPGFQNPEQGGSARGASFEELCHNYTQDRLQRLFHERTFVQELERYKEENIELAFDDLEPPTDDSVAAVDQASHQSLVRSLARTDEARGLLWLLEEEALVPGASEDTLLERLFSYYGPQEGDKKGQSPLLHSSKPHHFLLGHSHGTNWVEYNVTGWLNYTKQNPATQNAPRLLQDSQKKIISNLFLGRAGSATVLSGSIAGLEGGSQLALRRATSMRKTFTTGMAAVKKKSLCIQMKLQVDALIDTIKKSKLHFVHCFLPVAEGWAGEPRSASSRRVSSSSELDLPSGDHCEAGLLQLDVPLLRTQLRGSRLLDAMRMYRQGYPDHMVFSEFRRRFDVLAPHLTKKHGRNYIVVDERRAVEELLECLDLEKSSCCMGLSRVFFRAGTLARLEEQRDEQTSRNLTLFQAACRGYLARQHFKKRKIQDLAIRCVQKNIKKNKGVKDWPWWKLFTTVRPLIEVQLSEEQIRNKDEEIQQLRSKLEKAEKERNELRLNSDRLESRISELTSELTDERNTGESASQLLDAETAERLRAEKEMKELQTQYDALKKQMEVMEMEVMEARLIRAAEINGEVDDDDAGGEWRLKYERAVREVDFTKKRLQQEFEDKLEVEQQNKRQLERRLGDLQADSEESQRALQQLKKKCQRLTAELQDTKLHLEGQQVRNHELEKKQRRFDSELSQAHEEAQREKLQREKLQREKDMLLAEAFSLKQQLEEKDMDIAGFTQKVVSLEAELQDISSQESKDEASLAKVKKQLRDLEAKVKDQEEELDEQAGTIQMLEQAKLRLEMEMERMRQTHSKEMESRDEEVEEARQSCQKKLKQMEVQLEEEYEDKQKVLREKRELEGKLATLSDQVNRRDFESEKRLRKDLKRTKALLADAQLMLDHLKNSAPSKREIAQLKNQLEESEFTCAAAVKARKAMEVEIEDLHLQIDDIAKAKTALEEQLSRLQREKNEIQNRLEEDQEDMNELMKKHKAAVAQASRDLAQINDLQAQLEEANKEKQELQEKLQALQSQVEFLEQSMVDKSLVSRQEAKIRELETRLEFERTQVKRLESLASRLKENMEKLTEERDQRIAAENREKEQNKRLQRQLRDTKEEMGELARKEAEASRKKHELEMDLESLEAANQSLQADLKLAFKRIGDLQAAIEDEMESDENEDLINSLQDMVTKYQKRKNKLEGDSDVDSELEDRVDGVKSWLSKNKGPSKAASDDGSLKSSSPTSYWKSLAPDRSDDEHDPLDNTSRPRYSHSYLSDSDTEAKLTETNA
UniProt B0I1T2: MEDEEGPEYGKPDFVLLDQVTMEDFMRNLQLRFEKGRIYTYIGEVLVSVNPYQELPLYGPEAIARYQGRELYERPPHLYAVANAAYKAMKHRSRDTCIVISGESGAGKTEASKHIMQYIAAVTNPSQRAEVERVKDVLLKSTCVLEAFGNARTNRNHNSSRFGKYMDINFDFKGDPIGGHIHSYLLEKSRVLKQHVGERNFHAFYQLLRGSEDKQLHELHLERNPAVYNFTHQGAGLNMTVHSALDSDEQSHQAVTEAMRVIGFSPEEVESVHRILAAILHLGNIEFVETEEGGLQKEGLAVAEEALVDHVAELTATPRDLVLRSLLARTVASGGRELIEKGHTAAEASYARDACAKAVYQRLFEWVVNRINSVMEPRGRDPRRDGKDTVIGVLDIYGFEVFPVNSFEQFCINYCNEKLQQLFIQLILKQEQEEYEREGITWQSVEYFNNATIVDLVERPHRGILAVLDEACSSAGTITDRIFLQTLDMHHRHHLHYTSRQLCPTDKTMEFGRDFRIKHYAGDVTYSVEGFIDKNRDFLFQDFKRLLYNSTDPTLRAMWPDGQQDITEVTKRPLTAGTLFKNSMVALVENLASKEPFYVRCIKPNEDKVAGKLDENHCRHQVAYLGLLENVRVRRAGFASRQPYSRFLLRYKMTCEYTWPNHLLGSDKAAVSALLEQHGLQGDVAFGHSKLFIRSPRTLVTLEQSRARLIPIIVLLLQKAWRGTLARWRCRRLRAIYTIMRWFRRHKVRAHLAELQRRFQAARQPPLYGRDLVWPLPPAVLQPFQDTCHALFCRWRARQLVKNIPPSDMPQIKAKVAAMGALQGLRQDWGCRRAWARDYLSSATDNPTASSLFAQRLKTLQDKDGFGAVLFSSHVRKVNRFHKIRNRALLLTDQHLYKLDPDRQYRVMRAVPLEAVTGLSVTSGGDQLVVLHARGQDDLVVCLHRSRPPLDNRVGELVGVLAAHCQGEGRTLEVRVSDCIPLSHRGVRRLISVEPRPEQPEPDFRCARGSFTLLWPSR
UniProt P42695: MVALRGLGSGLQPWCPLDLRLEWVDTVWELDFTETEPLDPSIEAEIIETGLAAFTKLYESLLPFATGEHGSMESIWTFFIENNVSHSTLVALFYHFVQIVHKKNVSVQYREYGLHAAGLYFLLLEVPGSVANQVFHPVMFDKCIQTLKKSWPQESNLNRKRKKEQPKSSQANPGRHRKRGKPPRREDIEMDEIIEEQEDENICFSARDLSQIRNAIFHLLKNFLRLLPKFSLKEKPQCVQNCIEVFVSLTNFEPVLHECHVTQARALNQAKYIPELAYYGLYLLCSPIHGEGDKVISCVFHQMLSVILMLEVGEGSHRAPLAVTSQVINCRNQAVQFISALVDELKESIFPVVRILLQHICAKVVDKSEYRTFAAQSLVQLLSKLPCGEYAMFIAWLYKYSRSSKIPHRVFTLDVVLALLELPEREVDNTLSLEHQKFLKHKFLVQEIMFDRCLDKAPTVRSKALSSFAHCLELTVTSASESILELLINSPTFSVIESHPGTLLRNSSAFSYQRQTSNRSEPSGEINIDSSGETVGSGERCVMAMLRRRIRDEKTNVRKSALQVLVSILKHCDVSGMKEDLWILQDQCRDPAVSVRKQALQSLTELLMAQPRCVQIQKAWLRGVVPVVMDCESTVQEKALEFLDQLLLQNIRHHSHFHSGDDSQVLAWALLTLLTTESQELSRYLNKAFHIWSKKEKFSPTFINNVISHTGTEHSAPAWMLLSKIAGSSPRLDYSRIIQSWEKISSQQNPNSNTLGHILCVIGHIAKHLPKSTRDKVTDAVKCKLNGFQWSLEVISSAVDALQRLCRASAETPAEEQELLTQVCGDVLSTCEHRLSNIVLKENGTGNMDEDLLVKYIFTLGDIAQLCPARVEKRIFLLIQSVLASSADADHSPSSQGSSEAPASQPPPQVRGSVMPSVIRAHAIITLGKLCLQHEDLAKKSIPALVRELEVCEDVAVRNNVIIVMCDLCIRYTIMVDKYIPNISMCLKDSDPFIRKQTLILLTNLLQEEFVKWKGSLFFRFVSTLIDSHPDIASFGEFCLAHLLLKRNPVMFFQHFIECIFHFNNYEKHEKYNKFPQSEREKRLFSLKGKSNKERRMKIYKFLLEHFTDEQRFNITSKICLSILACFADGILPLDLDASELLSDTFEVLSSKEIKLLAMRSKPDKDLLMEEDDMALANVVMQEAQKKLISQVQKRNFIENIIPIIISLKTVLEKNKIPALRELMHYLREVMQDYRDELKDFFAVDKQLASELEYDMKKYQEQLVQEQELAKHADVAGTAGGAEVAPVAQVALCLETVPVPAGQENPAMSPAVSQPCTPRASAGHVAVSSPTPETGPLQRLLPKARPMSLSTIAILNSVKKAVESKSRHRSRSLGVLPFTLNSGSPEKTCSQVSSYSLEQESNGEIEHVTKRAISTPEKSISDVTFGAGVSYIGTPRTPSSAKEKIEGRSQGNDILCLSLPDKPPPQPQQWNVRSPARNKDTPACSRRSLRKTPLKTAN
UniProt Q12965: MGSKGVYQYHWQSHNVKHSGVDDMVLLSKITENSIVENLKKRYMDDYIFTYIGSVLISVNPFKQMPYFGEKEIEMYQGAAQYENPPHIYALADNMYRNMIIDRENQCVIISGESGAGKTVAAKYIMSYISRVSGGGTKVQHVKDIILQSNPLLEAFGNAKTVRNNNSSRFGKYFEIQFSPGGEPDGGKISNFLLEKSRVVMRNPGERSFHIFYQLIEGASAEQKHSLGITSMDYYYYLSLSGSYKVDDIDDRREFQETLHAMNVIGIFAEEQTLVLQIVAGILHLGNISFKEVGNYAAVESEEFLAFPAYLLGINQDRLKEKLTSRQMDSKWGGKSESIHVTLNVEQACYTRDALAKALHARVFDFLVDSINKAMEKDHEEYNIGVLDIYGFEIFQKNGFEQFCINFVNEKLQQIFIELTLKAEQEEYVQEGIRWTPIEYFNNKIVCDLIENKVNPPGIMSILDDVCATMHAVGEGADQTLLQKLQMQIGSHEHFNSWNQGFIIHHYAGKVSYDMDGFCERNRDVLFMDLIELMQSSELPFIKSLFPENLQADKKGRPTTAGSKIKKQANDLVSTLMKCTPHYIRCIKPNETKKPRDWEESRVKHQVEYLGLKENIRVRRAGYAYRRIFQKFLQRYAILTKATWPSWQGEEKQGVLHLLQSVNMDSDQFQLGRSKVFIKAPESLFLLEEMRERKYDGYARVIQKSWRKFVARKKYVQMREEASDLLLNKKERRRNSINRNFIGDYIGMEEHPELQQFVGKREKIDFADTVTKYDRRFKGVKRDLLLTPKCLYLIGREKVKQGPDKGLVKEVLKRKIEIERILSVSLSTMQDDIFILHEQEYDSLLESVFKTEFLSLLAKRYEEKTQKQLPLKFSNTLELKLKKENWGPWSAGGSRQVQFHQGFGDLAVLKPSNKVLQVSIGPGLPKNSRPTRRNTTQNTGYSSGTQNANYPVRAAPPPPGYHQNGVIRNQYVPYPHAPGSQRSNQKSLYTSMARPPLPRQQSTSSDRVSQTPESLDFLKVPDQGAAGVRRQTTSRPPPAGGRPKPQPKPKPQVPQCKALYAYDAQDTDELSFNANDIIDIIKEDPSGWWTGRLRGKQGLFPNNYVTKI
UniProt Q9UBB6: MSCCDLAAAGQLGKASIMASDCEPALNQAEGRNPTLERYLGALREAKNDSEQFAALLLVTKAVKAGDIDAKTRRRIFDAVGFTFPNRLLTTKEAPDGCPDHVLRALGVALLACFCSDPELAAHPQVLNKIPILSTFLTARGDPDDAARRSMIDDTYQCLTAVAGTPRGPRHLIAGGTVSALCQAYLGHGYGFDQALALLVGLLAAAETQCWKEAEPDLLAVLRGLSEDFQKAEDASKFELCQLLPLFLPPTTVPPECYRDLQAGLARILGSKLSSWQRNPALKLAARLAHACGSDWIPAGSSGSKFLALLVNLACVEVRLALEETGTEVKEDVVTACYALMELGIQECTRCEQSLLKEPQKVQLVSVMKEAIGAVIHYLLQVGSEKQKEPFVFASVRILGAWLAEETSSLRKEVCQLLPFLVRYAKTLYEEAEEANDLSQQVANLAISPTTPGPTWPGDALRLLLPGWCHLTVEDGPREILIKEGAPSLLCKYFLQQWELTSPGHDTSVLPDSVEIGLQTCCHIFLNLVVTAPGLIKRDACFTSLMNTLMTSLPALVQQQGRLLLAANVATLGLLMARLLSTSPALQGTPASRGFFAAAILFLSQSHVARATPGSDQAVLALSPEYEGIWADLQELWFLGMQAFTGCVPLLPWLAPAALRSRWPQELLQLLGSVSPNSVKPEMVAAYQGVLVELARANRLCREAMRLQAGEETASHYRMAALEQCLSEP

Compound in this test: Cc1cc(ccc1-c1ccccc1)C(=O)N1CCCN(CC1)C(=O)CCl [compound 10]
The test is described as follows: probe-labelled cysteine peptide fold change vs DMSO (competition) (log2 fold change); higher = less target engagement (more negative = stronger competition). The following applies: THP-1, incubation time: 4 h.
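Note: competitive profiling in live THP-1 cells: cysteine peptides tagged with an iodoacetamide desthiobiotin (IA-DTB) probe, intensity after compound treatment relative to DMSO-treated cells.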

For “MYO18A_Q92614_1699_NQLEESEFTCAAAVK (UniProt Q92614)”, the “probe-labelled cysteine peptide fold change” value by setting is: (10 µM) -0.177; (50 µM) -0.086.

As to “MYO1C_O00159_585_NPIMSQCFDR (UniProt O00159)”, the “probe-labelled cysteine peptide fold change” value was -0.00267 (10 µM) and 0.105 (50 µM).

In the case of “NBEAL2_Q6ZNJ1_1491_GQVFSVLTQLGASATLVRPPDCIKR (UniProt Q6ZNJ1)”, the “probe-labelled cysteine peptide fold change” value by setting is: (10 µM) -0.22; (50 µM) -0.189.

For the target “MYO1G_B0I1T2_942_GQDDLVVCLHR (UniProt B0I1T2)”, the “probe-labelled cysteine peptide fold change” value (10 µM) amounted to 0.00448 and the “probe-labelled cysteine peptide fold change” value (50 µM) was -0.0628.

Consider “NANS_Q9NR45_46_ECGADCAK (UniProt Q9NR45)”, for which the “probe-labelled cysteine peptide fold change” value reads like this: (10 µM) 0.204; (50 µM) -0.0313.

In the case of “MYO18A_Q92614_1199_NLTLFQAACR (UniProt Q92614)”, the “probe-labelled cysteine peptide fold change” value runs as follows: (10 µM) -0.11; (50 µM) 0.0241.

“MYO1F_O00160_856_TEFVSLLCK (UniProt O00160)”: the “probe-labelled cysteine peptide fold change” value (10 µM) came out at 0.083 and the “probe-labelled cysteine peptide fold change” value (50 µM) is 0.109.

As to “NCAPD3_P42695_588_EDLWILQDQCR (UniProt P42695)”, the “probe-labelled cysteine peptide fold change” value (10 µM) was 0.208 and the “probe-labelled cysteine peptide fold change” value (50 µM) was found to be 0.563.

Turning to “NAA15_Q9BXJ9_238_GELLLQLCR (UniProt Q9BXJ9)”, the “probe-labelled cysteine peptide fold change” value came to 0.084 (10 µM) and 0.258 (50 µM).

With “NAXD_Q8IW45_108_VGADLSHVFCASAAAPVIK (UniProt Q8IW45)”, the “probe-labelled cysteine peptide fold change” value reads like this: (10 µM) 0.112; (50 µM) -0.109.

Turning to “MYO1G_B0I1T2_655_MTCEYTWPNHLLGSDK (UniProt B0I1T2)”, the “probe-labelled cysteine peptide fold change” value reads like this: (10 µM) 0.0888; (50 µM) 0.0482.

Regarding NARS_O43776_452_CPEDSR (UniProt O43776), the “probe-labelled cysteine peptide fold change” value by setting is: (10 µM) 0.0788; (50 µM) -0.0731.

Turning to “MYO1E_Q12965_107_ENQCVIISGESGAGK (UniProt Q12965)”, the “probe-labelled cysteine peptide fold change” value (10 µM) was -0.0797 and the “probe-labelled cysteine peptide fold change” value (50 µM) was -0.799.

With “MYSM1_Q5VVJ2_564_SSFDPFQLIPCNFFSEEK (UniProt Q5VVJ2)”, the “probe-labelled cysteine peptide fold change” value (10 µM) worked out at 0.0482 and the “probe-labelled cysteine peptide fold change” value (50 µM) was 0.101.

Regarding “NCDN_Q9UBB6_469_LLLPGWCHLTVEDGPR (UniProt Q9UBB6)”, the “probe-labelled cysteine peptide fold change” value by setting is: (10 µM) 0.142; (50 µM) -0.0266.

The values are drawn from the supplement of paper PMC12067093, “Discovery and optimisation of a covalent ligand for TRIM25 and its application to targeted protein ubiquitination” (Chemical Science, 2025).
